Data as given in PubChem BioAssay AID743121 (NCATS, 2013)
Assay: 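Genes whose silencing strengthens cell killing by camptothecin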 (primary screen). Cell system: MDA-MB-231 cells, a human breast cancer line. Reagent: single siRNA against human genes, 20 nM siRNA (0.8 pmol per well). Duration: 120 h (drug added 48 h after transfection, read 72 h later). Conditions: camptothecin 20 nM (about EC30) for 72 h; vehicle 0.1% DMSO in parallel plates. Measured: 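Cell viability by ATP luminescence (CellTiter-Glo) as % of non-targeting siRNA wells, and the log2 ratio of viability without drug over viability with camptothecin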. Scale: log2 vehicle/camptothecin viability: higher = stronger sensitisation to camptothecin. Hit rule: 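Each gene scored by redundant siRNA activity (RSA) over its individual siRNA ratios; a gene is called active at p < 0.001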.
The deposit covers about 26,000 reagents; shown is a random part of them. 167 of all reagents (0.63%) count as active. 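Calls are per gene from RSA p-values that are not deposited; an individual active-marked siRNA can sensitise only weakly.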 The numbers tell different reagents against one gene apart. Further read-outs or replicates are left out here.

Target gene	reagent	log2 vehicle/camptothecin viability	call
BMP8B (bone morphogenetic protein 8b)	1	0.366	inactive
BMP8B (bone morphogenetic protein 8b)	2	0.0731	inactive
BMP8B (bone morphogenetic protein 8b)	3	-0.439	inactive
BMP8B (bone morphogenetic protein 8b)	4	0.0895	inactive
CACNG3 (calcium voltage-gated channel auxiliary subunit gamma 3)	1	-0.0933	inactive
CACNG3 (calcium voltage-gated channel auxiliary subunit gamma 3)	2	0.0599	inactive
CACNG3 (calcium voltage-gated channel auxiliary subunit gamma 3)	3	0.625	inactive
CACNG3 (calcium voltage-gated channel auxiliary subunit gamma 3)	4	-0.43	inactive
KCNK17 (potassium two pore domain channel subfamily K member 17)	1	0.247	inactive
KCNK17 (potassium two pore domain channel subfamily K member 17)	2	0.218	inactive
KCNK17 (potassium two pore domain channel subfamily K member 17)	3	-0.497	inactive
KCNK17 (potassium two pore domain channel subfamily K member 17)	4	-0.286	inactive
MRPS17 (mitochondrial ribosomal protein S17)	1	-0.432	inactive
MRPS17 (mitochondrial ribosomal protein S17)	2	-0.271	inactive
MRPS17 (mitochondrial ribosomal protein S17)	3	-0.0443	inactive
MRPS17 (mitochondrial ribosomal protein S17)	4	0.0397	inactive
BMF (Bcl2 modifying factor)	1	-0.11	inactive
BMF (Bcl2 modifying factor)	2	-0.222	inactive
BMF (Bcl2 modifying factor)	3	-0.162	inactive
BMF (Bcl2 modifying factor)	4	-0.0541	inactive
NR2C2 (nuclear receptor subfamily 2 group C member 2)	1	-0.424	inactive
NR2C2 (nuclear receptor subfamily 2 group C member 2)	2	-0.176	inactive
NR2C2 (nuclear receptor subfamily 2 group C member 2)	3	-0.227	inactive
NR2C2 (nuclear receptor subfamily 2 group C member 2)	4	-0.168	inactive
MARS1 (methionyl-tRNA synthetase 1)	1	-0.123	inactive
MARS1 (methionyl-tRNA synthetase 1)	2	-0.42	inactive
MARS1 (methionyl-tRNA synthetase 1)	3	-0.0713	inactive
MARS1 (methionyl-tRNA synthetase 1)	4	-0.0661	inactive
PAPSS1 (3'-phosphoadenosine 5'-phosphosulfate synthase 1)	1	0.292	inactive
PAPSS1 (3'-phosphoadenosine 5'-phosphosulfate synthase 1)	2	-0.558	inactive
PAPSS1 (3'-phosphoadenosine 5'-phosphosulfate synthase 1)	3	-0.171	inactive
PAPSS1 (3'-phosphoadenosine 5'-phosphosulfate synthase 1)	4	0.643	inactive
CYP2B6 (cytochrome P450 family 2 subfamily B member 6)	1	-0.477	inactive
CYP2B6 (cytochrome P450 family 2 subfamily B member 6)	2	-0.388	inactive
CYP2B6 (cytochrome P450 family 2 subfamily B member 6)	3	0.0266	inactive
CYP2B6 (cytochrome P450 family 2 subfamily B member 6)	4	-0.282	inactive
FRZB (frizzled related protein)	1	-0.146	inactive
FRZB (frizzled related protein)	2	-0.101	inactive
FRZB (frizzled related protein)	3	-0.365	inactive
FRZB (frizzled related protein)	4	-0.0194	inactive
CDK19 (cyclin dependent kinase 19)	1	0.00214	inactive
CDK19 (cyclin dependent kinase 19)	2	-0.211	inactive
CDK19 (cyclin dependent kinase 19)	3	-0.232	inactive
CDK19 (cyclin dependent kinase 19)	4	-0.22	inactive
DPF2 (double PHD fingers 2)	1	0.0287	inactive
DPF2 (double PHD fingers 2)	2	-0.206	inactive
DPF2 (double PHD fingers 2)	3	-0.246	inactive
DPF2 (double PHD fingers 2)	4	-0.0157	inactive
ULBP1 (UL16 binding protein 1)	1	-0.154	inactive
ULBP1 (UL16 binding protein 1)	2	-0.19	inactive
ULBP1 (UL16 binding protein 1)	3	-0.18	inactive
ULBP1 (UL16 binding protein 1)	4	0.126	inactive
RAD51D (RAD51 paralog D)	1	-0.369	inactive
RAD51D (RAD51 paralog D)	2	-0.817	inactive
RAD51D (RAD51 paralog D)	3	0.0413	inactive
RAD51D (RAD51 paralog D)	4	0.0671	inactive
TNFRSF8 (TNF receptor superfamily member 8)	1	-0.219	inactive
TNFRSF8 (TNF receptor superfamily member 8)	2	-0.135	inactive
TNFRSF8 (TNF receptor superfamily member 8)	3	0.107	inactive
TNFRSF8 (TNF receptor superfamily member 8)	4	-0.431	inactive
KMT2B (lysine methyltransferase 2B)	1	0.821	inactive
KMT2B (lysine methyltransferase 2B)	2	-0.0391	inactive
KMT2B (lysine methyltransferase 2B)	3	-0.469	inactive
KMT2B (lysine methyltransferase 2B)	4	-0.404	inactive
RAB17 (RAB17, member RAS oncogene family)	1	-0.21	inactive
RAB17 (RAB17, member RAS oncogene family)	2	-0.0635	inactive
RAB17 (RAB17, member RAS oncogene family)	3	-0.317	inactive
RAB17 (RAB17, member RAS oncogene family)	4	-0.519	inactive

Targets above whose target name begins with R or r:
Target gene	reagent	log2 vehicle/camptothecin viability	call
RAD51D (RAD51 paralog D)	1	-0.369	inactive
RAD51D (RAD51 paralog D)	2	-0.817	inactive
RAD51D (RAD51 paralog D)	3	0.0413	inactive
RAD51D (RAD51 paralog D)	4	0.0671	inactive
RAB17 (RAB17, member RAS oncogene family)	1	-0.21	inactive
RAB17 (RAB17, member RAS oncogene family)	2	-0.0635	inactive
RAB17 (RAB17, member RAS oncogene family)	3	-0.317	inactive
RAB17 (RAB17, member RAS oncogene family)	4	-0.519	inactive
